Assay results from patent US8013159B2, “Quinoline derivatives as EP4 antagonists” (Merck Canada Inc., priority 2005, dated 2011).
Some results were stated once for a whole list of compounds, not compound by compound.

By UniProt entry, the sequences of proteins in these tests, tags left out. Where a name states a change or a piece, a line headed by the entry shows the natural chain unless it says otherwise.
UniProt P35408: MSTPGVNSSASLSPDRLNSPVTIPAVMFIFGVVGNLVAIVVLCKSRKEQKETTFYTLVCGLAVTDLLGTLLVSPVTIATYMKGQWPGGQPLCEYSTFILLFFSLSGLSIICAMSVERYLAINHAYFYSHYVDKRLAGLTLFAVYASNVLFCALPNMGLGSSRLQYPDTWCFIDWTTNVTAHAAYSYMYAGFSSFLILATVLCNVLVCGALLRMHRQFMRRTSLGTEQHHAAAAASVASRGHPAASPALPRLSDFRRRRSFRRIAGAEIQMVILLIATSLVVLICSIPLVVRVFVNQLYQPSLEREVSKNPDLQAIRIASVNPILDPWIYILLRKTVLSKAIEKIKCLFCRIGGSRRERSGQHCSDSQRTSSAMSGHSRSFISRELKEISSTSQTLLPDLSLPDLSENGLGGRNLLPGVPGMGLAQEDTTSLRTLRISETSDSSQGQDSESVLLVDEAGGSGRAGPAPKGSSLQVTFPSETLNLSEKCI

Target: T1, EP4 receptor (Homo sapiens, UniProt P35408)
T1 construct: expressed in transfected cells; membranes prepared by differential centrifugation
Test: Prostanoid receptor binding assay (EP4), membranes of transfected HEK 293(ebna) cells
Method: Prostanoid receptor cDNAs corresponding to full length coding sequences are subcloned into the appropriate sites of mammalian expression vectors and transfected into HEK 293(ebna) cells. HEK 293(ebna) cells expressing the individual cDNAs are grown under selection and individual colonies are isolated after 2-3 weeks of growth using the cloning ring method and subsequently expanded into clonal cell lines.
Transfected HEK 293(ebna) cells are maintained in culture, harvested and membranes are prepared by differential centrifugation, following lysis of the cells in the presence of protease inhibitors, for use in receptor binding assays. Prostanoid receptor binding assays (for DP1, DP2 (CRTH2), EP 1, EP2, EP3-11, EP4, FP, IP, and TP) are performed in 10 mM MES/KOH (pH 6.0) (EPs, FP and TP) or 10 mM HEPES/KOH (pH 7.4) (DPs and IP), containing 1 mM EDTA, 2.5-30 mM divalent cation and the appropriate radioligand. Synthetic compounds are added in dimethylsulfoxide which is kept constant at 1% (v/v) in all incubations. The reaction is initiated by addition of membrane protein. Non-specific binding is determined in the presence of 10 μM of the corresponding non-radioactive prostanoid. Incubations are conducted for 60-90 min at room temperature or 30° C. and terminated by rapid filtration. Specific binding is calculated by subtracting non specific binding from total binding. The residual specific binding at each ligand concentration is calculated and expressed as a function of ligand concentration in order to construct sigmoidal concentration-response curves. The binding affinity of the compounds is determined by calculating the equilibrium inhibition constant (Ki) from the equation Ki=InPt/1+[radioligand]/Kd where Kd is the equilibrium dissociation constant for the radioligand:receptor interaction and InPt is the inflection point of the dose-response curves.

CCOc1c2c(c(OCC)c3ncccc13)C(=O)N(c1ccc(CS(=O)(=O)NC(=O)Cc3ccccc3)cc1)C2=O [Example 2, N-{[4-(5,9-diethoxy-6,8-dioxo-6,8-dihydro-7H-pyrrolo[3,4-g]quinolin-7-yl)benzyl]sulfonyl}-2-phenylacetamide]
IC50: < 100 nM

CCOc1ccccc1CC(=O)NS(=O)(=O)Cc1ccc(N2Cc3c(c(OCC)c4cccnc4c3OCC)C2=O)c(C)c1 [Example 47, N-{[4-(5,9-diethoxy-6-oxo-6,8-dihydro-7H-pyrrolo[3,4-g]quinolin-7-yl)-3-methylbenzyl]sulfonyl}-2-(2-ethoxyphenyl)acetamide]
IC50: < 100 nM

CCOc1c2c(c(OCC)c3ncccc13)CN(c1ccc(CS(=O)(=O)NC(=O)Cc3ccncc3)cc1C)C2=O [Example 9, N-{[4-(5,9-diethoxy-6-oxo-6,8-dihydro-7H-pyrrolo[3,4-g]quinolin-7-yl)-3-methylbenzyl]sulfonyl}-2-pyridin-4-ylacetamide]
IC50: < 100 nM

CCOc1c2c(c(OCC)c3ncccc13)CN(c1ccc(CS(=O)(=O)NC(=O)C3(c4c(F)cccc4Cl)CC3)cc1C)C2=O [Example 65, 1-(2-chloro-6-fluorophenyl)-N-{[4-(5,9-diethoxy-6-oxo-6,8-dihydro-7H-pyrrolo[3,4-g]quinolin-7-yl)-3-methylbenzyl]sulfonyl}cyclopropane-carboxamide]
IC50: < 100 nM

CCOc1c2c(c(OCC)c3ncccc13)CN(c1ccc(CS(=O)(=O)NC(=O)C3Cc4ccccc43)cc1C)C2=O (stereo not drawn) [Example 55, N-{[4-(5,9-diethoxy-6-oxo-6,8-dihydro-7H-pyrrolo[3,4-g]quinolin-7-yl)-3-methylbenzyl]sulfonyl}bi-cyclo[4.2.0]octa-1,3,5-triene-7-carboxamide]
IC50: < 100 nM

CCOc1c2c(c(OCC)c3ncccc13)CN(c1ccc(CS(=O)(=O)NC(=O)C3CCCc4ccccc43)cc1C)C2=O (stereo not drawn) [Example 37, N-{[4-(5,9-diethoxy-6-oxo-6,8-dihydro-7H-pyrrolo[3,4-g]quinolin-7-yl)-3-methylbenzyl]sulfonyl}-1,2,3,4-tetrahydronaphthalene-1-carboxamide]
IC50: < 100 nM

CCOc1c2c(c(OCC)c3ncc(Br)cc13)CN(c1ccc(CS(=O)(=O)NC(=O)Cc3cc(I)ccc3OC)cc1C)C2=O [Example 49, N-{[4-(3-bromo-5,9-diethoxy-6-oxo-6,8-dihydro-7H-pyrrolo[3,4-g]quinolin-7-yl)-3-methylbenzyl]sulfonyl}-2-(5-iodo-2-methoxyphenyl)acetamide]
IC50: < 100 nM

CCOc1c2c(c(OCC)c3ncccc13)CN(c1ccc(CS(=O)(=O)NC(=O)Cc3ccccc3)cc1C)C2=O [Example 5, N-{[4-(5,9-diethoxy-6-oxo-6,8-dihydro-7H-pyrrolo[3,4-g]quinolin-7-yl)-3-methylbenzyl]sulfonyl}-2-phenylacetamide]
IC50: < 100 nM

CCOc1c2c(c(OCC)c3ncccc13)CN(c1ccc(CS(=O)(=O)NC(=O)Cc3ccccc3C(F)(F)F)cc1C)C2=O [Example 7, N-{[4-(5,9-diethoxy-6-oxo-6,8-dihydro-7H-pyrrolo[3,4-g]quinolin-7-yl)-3-methylbenzyl]sulfonyl}-2-[2-(trifluoromethyl)phenyl]acetamide]
IC50: < 100 nM

COc1ccccc1C1(C(=O)NS(=O)(=O)Cc2ccc(N3Cc4c(c(OC)c5cccnc5c4OC)C3=O)c(C)c2)CC1 [Example 56, N-{[4-(5,9-dimethoxy-6-oxo-6,8-dihydro-7H-pyrrolo[3,4-g]quinolin-7-yl)-3-methylbenzyl]sulfonyl}-1-(2-methoxyphenyl)cyclopropanecarbox-amide]
IC50: < 100 nM

COc1cccc(OC)c1C1(C(=O)NS(=O)(=O)Cc2ccc(N3Cc4c(c(OCC(F)(F)F)c5cc(Br)cnc5c4OCC(F)(F)F)C3=O)c(C)c2)CC1 [Example 67, N-({4-[3-bromo-6-oxo-5,9-bis(2,2,2-trifluoroethoxy)-6,8-dihydro-7H-pyrrolo[3,4-g]quinolin-7-yl]-3-methylbenzyl}sulfonyl)-1-(2,6-dimethoxyphenyl)cyclopropane-carboxamide]
IC50: < 100 nM

CCOc1c2c(c(OCC)c3ncccc13)CN(c1ccc(CS(=O)(=O)NC(=O)Cc3cc(OC)ccc3OC)cc1C)C2=O [Example 17, N-{[4-(5,9-diethoxy-6-oxo-6,8-dihydro-7H-pyrrolo[3,4-g]quinolin-7-yl)-3-methylbenzyl]sulfonyl}-2-(2,5-dimethoxyphenyl)acetamide]
IC50: < 100 nM

CCOc1c2c(c(OCC)c3ncccc13)C(=O)N(c1ccc(CS(=O)(=O)NC(=O)Cc3ccccc3OC)cc1Br)C2=O [Example 13, N-{[3-bromo-4-(5,9-diethoxy-6,8-dioxo-6,8-dihydro-7H-pyrrolo[3,4-g]quinolin-7-yl)benzyl]sulfonyl}-2-(2-methoxyphenyl)acetamide]
IC50: < 100 nM

CCOc1c2c(c(OCC)c3ncccc13)CN(c1ccc(CS(=O)(=O)NC(=O)Cc3ncccc3OC)cc1C)C2=O [Example 44, N-{[4-(5,9-diethoxy-6-oxo-6,8-dihydro-7H-pyrrolo[3,4-g]quinolin-7-yl)-3-methylbenzyl]sulfonyl}-2-(3-methoxypyridin-2-yl)acetamide]
IC50: < 100 nM

COc1ccccc1CC(=O)N(C)S(=O)(=O)Cc1ccc(N2Cc3c(c(OCC(F)(F)F)c4cccnc4c3OCC(F)(F)F)C2=O)c(C)c1 [Example 57, 2-(2-methoxyphenyl)-N-methyl-N-({3-methyl-4-[6-oxo-5,9-bis(2,2,2-trifluoroethoxy)-6,8-dihydro-7H-pyrrolo[3,4-g]quinolin-7-yl]benzyl}sulfonyl)acetamide]
IC50: < 100 nM

Cc1cc(CS(=O)(=O)NC(=O)C2(c3c(Cl)cccc3Cl)CC2)ccc1N1Cc2c(c(OCC(F)(F)F)c3cccnc3c2OCC(F)(F)F)C1=O [Example 60, 1-(2,6-dichlorophenyl)-N-({3-methyl-4-[6-oxo-5,9-bis(2,2,2-trifluoroethoxy)-6,8-dihydro-7H-pyrrolo[3,4-g]quinolin-7-yl]benzyl}sulfonyl)cyclopropane-carboxamide]
IC50: < 100 nM

CCOc1c2c(c(OCC)c3ncccc13)CN(c1ccc(CS(=O)(=O)NC(=O)C3(c4ccccc4)CC3)cc1C)C2=O [Example 15, N-{[4-(5,9-diethoxy-6-oxo-6,8-dihydro-7H-pyrrolo[3,4-g]quinolin-7-yl)-3-methylbenzyl]sulfonyl}-1-phenylcyclopropanecarboxamide]
IC50: < 100 nM

CCOc1c2c(c(OCC)c3ncccc13)CN(c1ccc(CS(=O)(=O)NC(=O)[C@@H](OC)c3ccccc3)cc1C)C2=O [Example 41, (2S)-N-{[4-(5,9-diethoxy-6-oxo-6,8-dihydro-7H-pyrrolo[3,4-g]quinolin-7-yl)-3-methylbenzyl]sulfonyl}-2-methoxy-2-phenylacetamide]
IC50: < 100 nM

CCOc1c2c(c(OCC)c3ncccc13)C(=O)N(c1ccc(CS(=O)(=O)NC(=O)Cc3ccccc3)cc1C)C2=O [Example 4, N-{[4-(5,9-diethoxy-6,8-dioxo-6,8-dihydro-7H-pyrrolo[3,4-g]quinolin-7-yl)-3-methylbenzyl]sulfonyl}-2-phenylacetamide]
IC50: < 100 nM

Cc1cc(CS(=O)(=O)NC(=O)Cc2cccc(Cl)c2Cl)ccc1N1Cc2c(c(OCC(F)(F)F)c3cccnc3c2OCC(F)(F)F)C1=O [Example 80, 2-(2,3-dichlorophenyl)-N-({3-methyl-4-[6-oxo-5,9-bis(2,2,2-trifluoroethoxy)-6,8-dihydro-7H-pyrrolo[3,4-g]quinolin-7-yl]benzyl}sulfonyl)acetamide]
IC50: < 100 nM

COc1cccc(OC)c1C(OC)C(=O)NS(=O)(=O)Cc1ccc(N2Cc3c(c(OCC(F)(F)F)c4cccnc4c3OCC(F)(F)F)C2=O)c(C)c1 (stereo not drawn) [Example 79, 2-(2,6-dimethoxyphenyl)-2-methoxy-N-({3-methyl-4-[6-oxo-5,9-bis(2,2,2-trifluoroethoxy)-6,8-dihydro-7H-pyrrolo[3,4-g]quinolin-7-yl]benzyl}sulfonyl)acetamide]
IC50: < 100 nM

COc1ccccc1C1(C(=O)NS(=O)(=O)Cc2ccc(N3Cc4c(c(OC(C)C)c5cccnc5c4OC(C)C)C3=O)c(C)c2)CC1 [Example 50, N-{[4-(5,9-diisopropoxy-6-oxo-6,8-dihydro-7H-pyrrolo[3,4-g]quinolin-7-yl)-3-methylbenzyl]sulfonyl}-1-(2-methoxyphenyl)cyclopropanecarbox-amide]
IC50: < 100 nM

Cc1cc(CS(=O)(=O)NC(=O)Cc2c(F)cccc2F)ccc1N1Cc2c(c(OCC(F)(F)F)c3cccnc3c2OCC(F)(F)F)C1=O [Example 69, 2-(2,6-difluorophenyl)-N-({3-methyl-4-[6-oxo-5,9-bis(2,2,2-trifluoroethoxy)-6,8-dihydro-7H-pyrrolo[3,4-g]quinolin-7-yl]benzyl}sulfonyl)acetamide]
IC50: < 100 nM

CCOc1c2c(c(OCC)c3ncccc13)CN(c1ccc(CS(=O)(=O)NC(=O)C3(c4ccc(Cl)cc4Cl)CC3)cc1C)C2=O [Example 39, 1-(2,4-dichlorophenyl)-N-{[4-(5,9-diethoxy-6-oxo-6,8-dihydro-7H-pyrrolo[3,4-g]quinolin-7-yl)-3-methylbenzyl]sulfonyl}cyclopropane-carboxamide]
IC50: < 100 nM
